Measured values: PubChem BioAssay AID1347423 (Functional Genomics Laboratory (NCATS/FGL), 2020)
The whole screen tested about 52,000 sequences, of which about 210 (0.4%) were called active.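 Rule for the calls: active = gene whose silencing raises cell survival under the drug, median off-target-corrected z-score across its silencing RNAs 2 or more; inactive = the rest.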 The list shows a part of the results.

Experiment: Resistance to Poly (ADP-Ribose) Polymerase inhibitor: Gene Identification via Genome-wide siRNA Screen
Settings: mouse BRCA2 R2336H ES cells, olaparib, CellTiter-Glo viability; hits give high values
Method in brief: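 Genome-wide siRNA screen (3 siRNAs/gene, 20 nM) in mouse ES cells carrying hypomorphic BRCA2 R2336H; olaparib 500 nM added 48 h post-transfection, CellTiter-Glo viability 72 h later. Normalized to plate-median negative control; MAD z-scores, gene median, seed-adjusted.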

Sequence	z-score
UGAAGGCAAAUCACUCUUUTT against Olfr181	inactive: 0.00802
GCCACUUUUGUCAAGGAAATT against Supt16h	inactive: -2.47
GACUCUCCUGCUUUUACCUTT against 1700019G17Rik	inactive: -0.537
CCAAGCUUCCUUCUAAAUATT against 5830457H20Rik	inactive: 0.139
GGCCUGAUGGAAUUAUAGATT against Wdr31	inactive: -0.44
GGAUUUUUGUGAGUCUAAGTT against Sdro	inactive: 0.796
UUUCCAGUCUCGCCCGAUUTT against Elmo1	inactive: -0.784
CCUGCUACUAUUGAAGUUGTT against Gtf3c2	inactive: 1.59
GGGACUUUCCAAACUAUAUTT against Irak1bp1	inactive: -0.132
GCAUCAGAGAAGUGCGAGCTT against Pafah2	inactive: -0.509
CCAGCACUAAAAGUAAGUGTT against V1rd12	inactive: 0.378
AGCCUAGCCUUUUUUGUACTT against Mt2	inactive: 0.902
GGCUUCAAAGCAUGACCAGTT against Ccr1	inactive: 0.74
GAGGUACCUCUACACAGAUTT against Fgf21	inactive: -2.56
GGUGAUGUACAAAGCCAAUTT against Gab3	inactive: -0.269
GGAUGAAAAUGAGUGGAAATT against Cdv3	inactive: 0.778
GCUUUCUACACCAUUCUUATT against Olfr165	inactive: 1.59
CCAUUACAGGGUUAUUGCATT against Rnf8	inactive: -2.28
GCACCUGGUGAAUUUUACCTT against D15Ertd405e	inactive: 1.06
GGAAUCAGCUAAUGAUUUCTT against AW125391	inactive: 0.338
UAUGGACGCAUUGGAGCCATT against Olfr348	inactive: -0.681
GCAUUAUCCAGAACUUAGATT against Sema3f	inactive: 0.667

Not a retest: an excerpt of the list.
Sequence	z-score
GCCACUUUUGUCAAGGAAATT against Supt16h	inactive: -2.47
GACUCUCCUGCUUUUACCUTT against 1700019G17Rik	inactive: -0.537

Later entries:

Sequence	z-score
GGCGAGAGGUACGACAAUATT against H60	inactive: 0.622
GGCUGGUACAAAGUUUUAGTT against Mpv17	inactive: 0.594
CCUCAAGACUAUCAGGAGATT against Nrbf2	inactive: -0.471
GGGCUAAAGUUGAUAAUAATT against Psmc3	inactive: -3.32
CGCAGAGUUGAUUGUCCUGTT against Neu2	inactive: 0.8
GGAACACGAAUCAUUUAUGTT against Eif4ebp2	inactive: 0.322
GGCCAUUCAGACGAGUGUUTT against Hivep3	inactive: -0.695
GGUAAGUGGAGGUAUUCUUTT against Egln1	inactive: 1.58
CGCUGAGCACUUUUCGGAATT against Rbp1	inactive: 0.625
GGCACAGCUGAUGAAACAATT against Ap2m1	inactive: -2.19
GGAUUUAGGUAUGUUUCACTT against C030011J08Rik	inactive: 1.87
GCCAAUGGUCACGAACCUATT against Senp5	inactive: 0.0286
GGCAUGUAAUUUGAUGAUCTT against Mansc1	inactive: 1.34
CGGAAACAAACGGACUGAUTT against Agpat4	inactive: -1.5
GCAGUACAGAUCGCCAUUATT against Tmeff1	inactive: 1.19
CGUAUGUAUGCCAACCUGGTT against D15Wsu169e	inactive: 0.555
GGGAAGAUGUGAUGUCUUUTT against Rab7l1	inactive: -0.392
GGAAUUUAGGAAGCAAAAGTT against 2610510H01Rik	inactive: 2.16
GGAAUCAGUUUCAGAGAAUTT against Mtf2	inactive: 0.116
GGAAGAGUGUCUAAAUGUATT against BC018472	inactive: -1.62
GACCAAGUUCAAAAUUCGATT against Gp49a	inactive: 0.0957
GGAUAAAGCAUCAGACAAATT against Hmgn1	inactive: -0.25

Four entries from above, field by field:
CGCUGAGCACUUUUCGGAATT against Rbp1
  z-score: inactive: 0.625
GCCAAUGGUCACGAACCUATT against Senp5
  z-score: inactive: 0.0286
GGCAUGUAAUUUGAUGAUCTT against Mansc1
  z-score: inactive: 1.34
GGAAGAGUGUCUAAAUGUATT against BC018472
  z-score: inactive: -1.62

Next part:

Sequence	z-score
GGCCUUAUUGAUAAGUCUUTT against Pte2a	inactive: -1.04
GGAUGUCUUUGUUCACCAGTT against Ybx2	inactive: 0.773
GGAAGACGGGCAUCAUGAATT against Srf	inactive: 1.66
GCACCAGUUACAGAAUGGATT against Zfp192	inactive: -0.722
GGUUUUAAGUUCUAGGGAATT against Olfr1288	inactive: -0.079
GGCUGAUAUGACCAACUUUTT against Gt(ROSA)26asSor	inactive: 0.0158
GGUAUCUGACCUCUUAAAATT against Olr1	inactive: -0.359
GGACGGCAAAGCGUACUGUTT against Pxn	inactive: 0.826
GGACAUCUGUGUUAAAUUUTT against Npy1r	inactive: 1.39
GGCCCAUAUUUUAUUACCGTT against Galns	inactive: 1.05
GCUAUAUUGUUAGCACACATT against Hmgn2	inactive: 1.36
GGAGCAGUUGUGUUUAACATT against Psg17	inactive: -1.11
GGAGGAUUCAUGCUUUGUUTT against 4932411A10Rik	inactive: -0.794
CGCUAUCUCGUUCAGGAUATT against Timm23	inactive: 1.44
CCUAGAAAUCAGUGAAUUUTT against Garnl1	inactive: 0.183
GCGGGACACCAUCAAUCCATT against Sytl4	inactive: 1.35
GCUUAGAUCUUACCCACCCTT against Ptcra	inactive: 1.29
GGAUCAAGGAAGCUCUCAGTT against Retnlb	inactive: -0.97
GGAGAAUUGCUUGAAUACUTT against D3Ertd300e	inactive: 1.09
CCGUGAAUUUUCAUUCACATT against Prim1	inactive: -0.124
GGUAGAGCAGAGCCUCCAUTT against Olfr555	inactive: -0.0105
GCUUGUGGAUUCGAUUUGGTT against Gtf3c5	inactive: -0.0929

Sequence	z-score
CCGGUUGAGUUCACAGAAUTT against 2610204G22Rik	inactive: -3.34
CCCAAUACCCAGGACUCAATT against Zfp51	inactive: -1.82
GGAAGAAUCGUUUAUGACATT against Ppp4r2	inactive: -0.233
GGGUUUGGUCGUAAACAGCTT against 0610025L06Rik	inactive: 0.779
GGAUGUGUGAAUCUACUGATT against Gpm6a	inactive: 1.48
GGGUGAGUAUAUGAUUCCUTT against Ctsd	inactive: 0.265
GGCGAAUUACUUGUGUUGUTT against Pvrl3	inactive: 0.354
GCCUUGACCUGUCUUUCAATT against Tlr2	inactive: 0.541
CCCACAUCCCUAAGUUGUGTT against BC050196	inactive: -0.808
GGCCAUGAGUCACAUGCUATT against Hcn3	inactive: 0.802
GGUGAGGAGCUGGAUAACATT against Smc4l1	inactive: -1.5
GUCUACAUCAACAUGCCUGTT against Hcst	inactive: -0.491
CGAAUAUGAUACCAGAAAGTT against Il5ra	inactive: -0.172
CCCUCUACAUGAUGACUGUTT against Olfr1280	inactive: 0.595
GGGCCUUAUACAUUUUUCATT against Calm1	inactive: 0.581
GGUGUUCAAAAUUCCUGCCTT against Mbl2	inactive: 0.236
CGGCAACUCAACAAGCUUATT against Cbfa2t3h	inactive: -0.644
GCUAAUAGGAGGACUUGACTT against Txnl2	inactive: 1.92
GGACGUGCUUACAUUGUACTT against Pcdhb9	inactive: -0.25
GCCUUGGCUGAAACUCUCATT against Cybb	inactive: 0.704
GGAUCCUUCUCUAAGGGCCTT against Dgcr8	inactive: -0.713
GGACCAGCUUGAAGCUGAATT against Arl6ip2	inactive: -1.65

Sequence	z-score
GGCAGAAAGCUGAUGAAGCTT against Pcx	inactive: -0.416
GCCUAUUGUGGUAUUACAUTT against Cyp2c40	inactive: -2.39
GGAGAACUGAAGAAUCCAATT against 1110030J09Rik	inactive: 0.894
GCUAAUGUGGAGGACUCACTT against Chml	inactive: -1.99
GGACUCGAGCACCAAAAAGTT against Dyrk1b	inactive: 0.158
GGUGUUCCUGUCUUUCAUGTT against Chordc1	inactive: -1.35
GGCCAUGUGAAGAUGGUGGTT against Ank1	inactive: 1.35
GCCGUUAGGAAAAAACGAUTT against Ckap1	inactive: 0.557
GGUUAAGUCUUUAAAGAAGTT against Ick	inactive: 1.23
GGAUUAAAGGAAGUGACUGTT against Oscar	inactive: -0.531
GCGCAAUGCAGAACUACGATT against Tac1	inactive: 0.068
GAGUUCAUCCCGUAUCACCTT against Cox6a2	inactive: 0.833
GGAUAUGACAGCUUUCUUUTT against T2	inactive: -0.22
GCAGUGGUGUAAACCUCAUTT against Pde3b	inactive: -0.519
CGGAGAACCAACCUAAGUUTT against Dok1	inactive: -0.528
GGUGCAUGCACAAGUGUUUTT against Esrra	inactive: 1.16
GGGUAAUGAGCUUGGUGAATT against Zfp53	inactive: -0.417
CGGAGUUGAAGUCACAUACTT against E230031K19	inactive: -1.76
